Values as published with doi:10.1371/journal.pone.0140310, rounded.

All values are for the listed drug together with AS-252424 (1 µM): O=C1NC(=O)/C(=C/c2ccc(-c3ccc(F)cc3O)o2)S1

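The test systems are human melanoma cell lines, treated with a pair of drugs for 72 h and then stained and imaged. The read-out is cell count (nuclei) in % of the DMSO control; lower values mean stronger growth inhibition or killing. Every drug was used at one fixed concentration, the lower of two screened (a fifth of the higher). The file gives one value for each pair and line, without errors, so small differences may be noise.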 Only some of the drugs and lines screened are listed, without regard to their results. An entry leaves out what has no value listed here. A dash means that no value is listed here.

Partner	LOX IMVI	IST-MEL1	501mel	A375	MEL-HO	A2058	COLO 800	A101D
Nc1ncn([C@H]2C[C@H](O)[C@@H](CO)O2)c(=O)n1 at 0.1 µM	75.8	90.6	68.6	-	67.0	69.3	71.7	88.3
COc1cc([C@@H]2c3cc4c(cc3[C@@H](O[C@@H]3O[C@@H]5CO[C@@H](C)O[C@H]5[C@H](O)[C@H]3O)[C@H]3COC(=O)[C@H]23)OCO4)cc(OC)c1O at 0.02 µM	99.5	110	88.7	-	109	106	104	-
C#Cc1cccc(Nc2ncnc3cc(OCCOC)c(OCCOC)cc23)c1 at 0.8 µM	94.8	95.7	99.1	90.9	119	106	81.3	105
CC(C)C[C@H](NC(=O)[C@H](Cc1ccccc1)NC(=O)c1cnccn1)B(O)O at 0.001 µM	73.9	89.6	34.7	-	82.4	99.4	93.0	24.9
Cn1nnc2c(C(N)=O)ncn2c1=O at 2 µM	99.8	93.7	113	82.0	98.5	89.0	104	92.9
NC(=O)Nc1cc(-c2cccc(F)c2)sc1C(=O)N[C@H]1CCCNC1 at 0.02 µM	108	113	89.8	64.7	106	114	101	97.7
C[C@]1(c2nc3c(C(N)=O)cccc3[nH]2)CCCN1 at 1.4 µM	82.8	100	91.1	91.8	109	90.0	97.5	91.9
Cc1ccc(NC(=O)c2cccc(N(C)C)c2)cc1NC(=O)c1ccc(O)cc1 at 2 µM	110	93.1	99.2	80.5	87.0	110	94.8	100
CN(NC(=O)CC(=O)NN(C)C(=S)c1ccccc1)C(=S)c1ccccc1 at 0.006 µM	155	91.2	79.4	46.6	105	89.8	81.5	81.1
C[C@]1(O)C[C@@H](c2nc(-c3ccc4ccc(-c5ccccc5)nc4c3)c3c(N)nccn32)C1 at 0.4 µM	92.6	100	85.0	-	102	98.9	82.2	94.7
CC(C)(C)c1cnc(CSc2cnc(NC(=O)C3CCNCC3)s2)o1 at 0.01 µM	94.3	104	92.4	97.0	90.1	101	103	104
Cn1cncc1[C@@](N)(c1ccc(Cl)cc1)c1ccc2c(c1)c(-c1cccc(Cl)c1)cc(=O)n2C at 0.01 µM	76.3	91.5	89.7	80.7	96.6	102	87.9	97.7
Cc1cc(Nc2cc(N3CCN(C)CC3)nc(/C=C/c3ccccc3)n2)n[nH]1 at 0.04 µM	92.0	96.1	92.5	-	93.0	71.0	104	100
CCN(CC)CCNC(=O)c1c(C)[nH]c(/C=C2\C(=O)Nc3ccc(F)cc32)c1C at 0.4 µM	93.6	104	66.7	-	98.8	105	78.1	83.1
Nc1nc(F)nc2c1ncn2[C@@H]1O[C@H](CO)[C@@H](O)[C@@H]1O at 0.2 µM	74.5	97.2	3.7	-	85.7	83.0	101	94.9
CC(=O)c1c(C)c2cnc(Nc3ccc(N4CCNCC4)cn3)nc2n(C2CCCC2)c1=O at 0.04 µM	91.3	82.4	66.2	-	69.5	92.1	108	83.0
CCc1ccc(CCOc2ccc(CC3SC(=O)NC3=O)cc2)nc1 (stereo not drawn) at 2 µM	72.0	101	88.1	96.0	99.7	97.5	70.3	99.8
COCC[n+]1c2c(n(Cc3cnccn3)c1C)C(=O)c1ccccc1C2=O at 0.0004 µM	106	102	120	96.1	80.1	105	78.1	101
COc1cc2c(Oc3ccc4[nH]c(C)cc4c3F)ncnc2cc1OCCCN1CCCC1 at 0.4 µM	98.7	105	83.6	104	104	86.6	114	108
C[C@@H]1CCN(C(=O)CC#N)C[C@@H]1N(C)c1ncnc2[nH]ccc12 at 1 µM	97.2	105	76.4	95.0	102	89.6	93.1	112
Cn1c(=O)n(-c2ccc(C(C)(C)C#N)cc2)c2c3cc(-c4cnc5ccccc5c4)ccc3ncc21 at 0.004 µM	80.0	92.8	94.3	-	90.1	93.3	68.0	98.1
Cc1cc(SCc2sc(-c3ccc(C(F)(F)F)c(F)c3)nc2C)ccc1OCC(=O)O at 2 µM	77.7	98.5	91.1	94.4	104	98.0	65.2	95.2
OCCn1cc(-c2cnc3nnn(Cc4ccc5ncccc5c4)c3n2)cn1 at 1 µM	85.2	100	96.4	96.2	84.4	102	84.8	110
O=C(Nc1cccc(Cl)c1)Nc1ncc(CCNc2ncnc3ccsc23)s1 at 0.0008 µM	101	104	99.1	96.5	97.9	104	110	98.9
COc1cc(Nc2ncc(F)c(Nc3ccc4c(n3)NC(=O)C(C)(C)O4)n2)cc(OC)c1OC at 0.4 µM	46.9	103	104	93.0	93.0	95.2	61.8	89.7
O=C(Nc1ccccc1)c1cc([N+](=O)[O-])ccc1Cl at 2 µM	53.0	96.8	88.2	97.2	105	113	100	101
Cc1cc(N2CCOCC2)cc2[nH]c(-c3c(NC[C@@H](O)c4cccc(Cl)c4)cc[nH]c3=O)nc12 at 0.2 µM	101	100	79.4	92.3	91.4	122	41.4	108
O=C(Oc1ccc([N+](=O)[O-])cc1)N1CCC(C(O)(c2ccc3c(c2)OCO3)c2ccc3c(c2)OCO3)CC1 at 1 µM	83.7	98.1	95.6	95.0	74.2	104	101	111
Cc1nc(Nc2ncc(C(=O)Nc3c(C)cccc3Cl)s2)cc(N2CCN(CCO)CC2)n1 at 0.004 µM	70.0	96.5	-	-	71.5	-	76.6	-
CO[C@@H]1[C@H](N(C)C(=O)c2ccccc2)C[C@H]2O[C@]1(C)n1c3ccccc3c3c4c(c5c6ccccc6n2c5c31)C(=O)NC4 at 0.08 µM	58.1	90.6	104	86.1	94.6	88.3	69.5	94.5
Nc1cccc2c1CN(C1CCC(=O)NC1=O)C2=O (stereo not drawn) at 1 µM	82.1	98.7	117	121	93.0	103	70.7	111

2 of the entries, repeated:

{"partner": "Cc1nc(Nc2ncc(C(=O)Nc3c(C)cccc3Cl)s2)cc(N2CCN(CCO)CC2)n1 at 0.004 µM", "LOX IMVI": 70.0, "IST-MEL1": 96.5, "MEL-HO": 71.5, "COLO 800": 76.6}
{"partner": "CC(C)(C)c1cnc(CSc2cnc(NC(=O)C3CCNCC3)s2)o1 at 0.01 µM", "LOX IMVI": 94.3, "IST-MEL1": 104, "501mel": 92.4, "A375": 97.0, "MEL-HO": 90.1, "A2058": 101, "COLO 800": 103, "A101D": 104}